Results are given in words; binding and its absence hold for the method and conditions named.
Key:
[1] = target: 6×His–FAK KFL_(804–832) (human) (UniProt Q05397); assay: MST; labelled 6×His protein at 50 nM, unlabelled protein serially diluted; 20 mM HEPES, 200 mM NaCl, 1 mM DTT, pH 6.5; dimer to monomers; both purified
[2] = target: 6×His–PYK2 KFL_(761–839) (human) (UniProt Q14289); assay: as above

Protein sequences, listed by entry. Tags and fused reporters are not part of them. Residues count along the entry.
UniProt Q05397, residues 804-832: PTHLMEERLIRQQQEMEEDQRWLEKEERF

Substance	binding [1]	binding [2]
6×His–FAK KFL_(804–832) (from UniProt Q05397 804-832) (domain or fragment)	no binding	–
6×His–PYK2 KFL_(761–839) (from UniProt Q14289 761-839) (domain or fragment)	–	no binding

Source: paper PMC9363500 (Communications Biology, 2022)
